In PubChem BioAssay AID1688 (National Center for Advancing Translational Sciences (NCATS), 2009):
“And” between values parts separate entries of the source, which are not always exact repeats. Equal values may be shown once. About 2,400 (1.1%) of roughly 220,000 compounds were called active. This list was built around the results that the source calls inconclusive (neither active nor inactive); the mix of calls is not that of the screen. Calls come from the whole dose curve; as a rule, active = well fitted inhibition curve with a large enough effect; inconclusive = small, poorly fitted or top-dose-only effect, or effect the other way; inactive = no such curve, though single readings can be large or run the other way. Potencies beside an inconclusive call are fits to weak or partial responses and may not hold up.

Assay: qHTS Multiplex Assay to Identify Dual Action Probes in a Cell Model of Huntington: Aggregate Formation (GFP); note: nearly all actives have a fitted effect of over 60% in size
Conditions: PC12 HttQ103-GFP aggregates, Acumen cytometry, 40 h; activity change, negative = inhibition: at 46.1 µM (top of the series)
Method in brief: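 Quantitative HTS on tebufenozide-induced (100 nM) PC12 cells stably expressing polyQ103 Huntingtin exon 1–GFP. Reduction of bright GFP aggregates, detected by laser scanning cytometry after lysis, identified actives across the titration.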
% is set by controls: 0 for no effect and ±100 for the full control effect; potency is the fitted concentration of half-maximal effect.

SMILES | Potency | activity change, negative = inhibition
CN(C)C=C1C(=O)N(C2CCCCC2)C(=O)N(C2CCCCC2)C1=O | inconclusive: 6.31 µM [activator, partial curve] | 
Clc1ccc(COC(Cn2ccnc2)c2ccc(Cl)cc2Cl)cc1 (stereo unspecified) | inconclusive: 11.2 µM [inhibitor, partial curve] | 
CN1c2ccc([N+](=O)[O-])cc2CC2(C(=O)NC(=O)NC2=O)C1c1ccccc1 (stereo unspecified) | inconclusive: 35.5 µM [activator, single point] | 
CN1C2CCC1CC(OC(=O)c1ccc(Cl)cc1)(C(=O)O)C2 (stereo unspecified) | inactive | 
CN1CCC2(CC1)C(C#N)=C(N)NC(S)=C2C#N | inconclusive: 1.41 µM [inhibitor, partial curve] | 
Cc1c(C=O)c2ccccc2n1Cc1ccccc1F |  | inactive: -11.6% [at 9.22 µM]
CN(C)c1ccc(-[n+]2c(-c3ccccc3)cc(-c3ccccc3)cc2-c2ccccc2)cc1 | active: 1.12 µM | 
CN(C)C(=O)Oc1ccc(OCc2nc3ccccc3[nH]2)cc1 | inconclusive: 8.91 µM [inhibitor, partial curve] | 
O=C(CCN1CCOCC1)NCC(=O)Nc1ccc(Br)cc1C(=O)c1ccccc1 | inactive | 
CCc1ccc(NP(=O)(Oc2ccccc2F)Oc2ccccc2F)cc1 | inconclusive: 35.5 µM [inhibitor, single point] | 
CCN1C(=O)C(=C2C=C(C)OC(C)=C2)C(=O)N(CC)C1=S | inactive | 
CCN1C(=O)C(=C/C=C/c2ccco2)C(=O)N(CC)C1=S | inconclusive: 15.8 µM [activator, single point] | 
Cc1ccc(C)c(CN2CCC(n3nnc4cc(F)ccc43)CC2)c1 | inconclusive: 35.5 µM [inhibitor, single point] | 
Oc1c(Br)cc(Br)cc1Oc1ccc(Br)cc1Br | active: 12.6 µM | 
O=C(c1cccn2c(=O)c3ccccc3nc12)N1CCC2(CC1)OCCO2 | inconclusive: 3.98 µM [activator, single point] | 
CN1/C(=C\C=C\C2=[N+](C)c3ccc4ccccc4c3C2(C)C)C(C)(C)c2ccccc21 | active: 2.82 µM | 
CCc1c(C)nc(N)nc1N1N=C1SCCOc1ccccc1 | inconclusive: 35.5 µM [activator, partial curve] | 
COc1cc2c(cc1/C=C/[N+](=O)[O-])OCO2 | inconclusive: 22.4 µM [inhibitor, single point] | 
COc1ccccc1OCC#CCN1CCCCCC1 | inconclusive: 35.5 µM [activator, single point] | 
O=C1NC(=S)N(Cc2ccco2)C(=O)/C1=C\c1cccs1 | inactive | 
CN1CCN(c2ccc(NC(=O)Oc3ccccc3)cc2)CC1 | inactive | 
CC(=O)OC[C@]12CCC(C)=C[C@H]1O[C@@H]1[C@H](O)[C@@H](OC(C)=O)[C@@]2(C)[C@]12CO2 | active: 0.1 µM | 
CCn1cc(C(=O)O)c(=O)c2cc(F)c(N3CCNCC3)cc21 | inactive and inconclusive: 3.55 µM [inhibitor, single point] | 

SMILES | Potency | activity change, negative = inhibition
COc1ccccc1CN1CCN(C(=O)COc2cccc(C)c2)CC1 | inconclusive: 11.2 µM [inhibitor, partial curve] | 
COc1ccccc1N1C(=O)NC(=O)/C(=C/c2ccc([N+](=O)[O-])s2)C1=O |  | inactive: -3.17% [at 9.22 µM]
CC[C@@H](CO)NC(=O)[C@@H]1C=C2c3cccc4c3c(cn4C)C[C@H]2N(C)C1 | inactive | 
O=C(O)c1ccc2c(c1)C1C(Cl)C(Sc3ccccc3[N+](=O)[O-])CC1C(c1cccc([N+](=O)[O-])c1)N2 (stereo unspecified) | inconclusive: 35.5 µM [activator, partial curve] | 
Cc1[nH]n(-c2ccccc2)c(=O)c1C(c1cccc([N+](=O)[O-])c1O)c1c(C)[nH]n(-c2ccccc2)c1=O | inconclusive: 22.4 µM [inhibitor, single point] | 
Cn1ccc(NC(=O)CCl)n1 | inconclusive: 35.5 µM [inhibitor, single point] | 
CCOC(=O)Cc1[nH]nc2c1C(c1ccoc1)C(C#N)=C(N)O2 (stereo unspecified) | inconclusive: 0.112 µM [inhibitor, partial curve] | 
C[C@]12O[C@H](C[C@]1(O)CO)n1c3ccccc3c3c4c(c5c6ccccc6n2c5c31)CNC4=O | active: 1.58 µM | 
CC(=O)Nc1ccc(S(=O)(=O)N(C)CCOCc2ccccc2)cc1 | active: 11.2 µM | 
CCN(CC)c1ccc(N=Cc2c(O)n(-c3ccc(OC)cc3)c(=O)[nH]c2=O)cc1 | inconclusive: 14.1 µM [activator, partial curve] | 
CCCCOc1nc2ccccc2c(=O)n1-c1ccccc1 | inactive | 
O=P1(NCc2ccco2)COc2ccccc2OC1 | inactive | 
Cc1cc2nc3c(=O)[nH]c(=O)nc-3n(C[C@H](O)[C@H](O)[C@H](O)COP(=O)(O)OP(=O)(O)OC[C@H]3O[C@@H](n4cnc5c(N)ncnc54)[C@H](O)[C@@H]3O)c2cc1C | inconclusive: 15.8 µM [inhibitor, partial curve, poor fit] | 
CCCCCn1c(=O)c(C(=O)NCc2ccncc2)c(O)c2ccccc21 | active: 22.4 µM | 
CN1CCN(c2ncnc3nc[nH]c23)CC1 | inconclusive: 25.1 µM [activator, partial curve, poor fit] | 
CCC(C(=O)O)C1CCC(C)C(C(C)C(O)C(C)C(=O)C(CC)C2OC3(C=CC(O)[C@@]4(CC[C@](C)(C5CC[C@@](O)(CC)C(C)O5)O4)O3)C(C)CC2C)O1 (stereo partly specified) | active: 1.41 µM | 
COc1ccc(C2SCC(=O)Nc3c2c(C)nn3C2CCOC(C)(C)C2)cc1 (stereo unspecified) | inactive | 
COc1ccc(-n2c(-c3ccccc3)nc3ccccc3c2=O)cc1 |  | inactive: -2.76% [at 9.22 µM]
CCCCN1C(=O)NC(=O)C2(Cc3c(nc4c(C)cccn4c3=O)N3CCc4ccccc4C32)C1=O (stereo unspecified) | inconclusive: 35.5 µM [inhibitor, single point] | 
OC[C@@H](O)[C@H]1O[C@@H]2OC(C(Cl)(Cl)Cl)O[C@H]2[C@H]1O (stereo partly specified) | inactive | 
COC(=O)c1ccc(NC2=C(Cl)C(=O)OC2OC(=O)c2ccccc2)cc1 (stereo unspecified) | inconclusive: 12.6 µM [activator, partial curve] | 
CCn1nc(-c2ccccc2)nc2c(=O)n(C)c(=O)nc1-2 | active: 8.91 µM | 
Cc1ccc(NP(=O)(Oc2ccccc2F)Oc2ccccc2F)cc1C | inconclusive: 5.62 µM [inhibitor, single point] | 
CCc1ccc(OCCCN=C(C)c2c(O)n(C)c(=O)n(C)c2=O)cc1 | inconclusive: 10 µM [inhibitor, partial curve, poor fit] | 

Of the compounds above, these contain a cyano group:
SMILES | Potency | activity change, negative = inhibition
CN1CCC2(CC1)C(C#N)=C(N)NC(S)=C2C#N | inconclusive: 1.41 µM [inhibitor, partial curve] | 
CCOC(=O)Cc1[nH]nc2c1C(c1ccoc1)C(C#N)=C(N)O2 (stereo unspecified) | inconclusive: 0.112 µM [inhibitor, partial curve] | 

Following part:

SMILES | Potency | activity change, negative = inhibition
CC(c1ccc(F)cc1)n1cc(C(=O)NCc2ccc3c(c2)OCO3)nn1 (stereo unspecified) | inactive | 
CN1CC=C2C(C#N)=C(N)C(C#N)(C#N)C(c3ccncc3)C2C1 (stereo unspecified) | inactive | 
Clc1ccc(N2CCNCC2)nn1 | inactive | 
O=C(CCl)Nc1nccs1 |  | inactive: -10.9% [at 9.22 µM]
Cc1ccc(/C=C2/C(=O)NC(=O)N(C)C2=O)cc1 | inactive | 
NC1CCCCC1N=Cc1c(O)n(Cc2ccc(F)cc2)c(=O)[nH]c1=O (stereo unspecified) | inconclusive: 11.2 µM [activator, partial curve] | 
Cc1ccccc1-n1c(O)c(C=Nc2ccc(N(C)C)cc2)c(=O)[nH]c1=O | inconclusive: 22.4 µM [activator, partial curve] | 
CN1C2CCC1CC(OC(c1ccccc1)c1ccc(Cl)cc1)C2 (stereo unspecified) | inconclusive: 28.2 µM [inhibitor, partial curve, poor fit] | 
CC1=CC2/C=C(\C)CCC(O)C(O)/C=C/C(=O)C23C(=O)NC(CC(C)C)C3C1C (stereo unspecified) | inconclusive: 5.62 µM [inhibitor, single point] | 
COc1cc(CN2CCN(c3cc(C)ccc3C)CC2)ccc1O | active: 10 µM | 
CCCCCCn1c(=O)c(C(=O)Nc2ccncc2)c(O)c2ccccc21 | inconclusive: 3.98 µM [inhibitor, partial curve] | 
O=c1[nH]c2ccccc2c(=O)n1-c1ccc(Cl)cc1Cl | inconclusive: 0.631 µM [inhibitor, partial curve] | 
O=C(Nc1cccnc1)c1c(O)c2c(n(Cc3ccccc3)c1=O)CCCC2 | inconclusive: 35.5 µM [inhibitor, single point] | 
CN1C(=O)C(=Cc2ccc(-c3cccc(Cl)c3)o2)C(=O)N(C)C1=O | inactive | 
O=C(CN1CCOCC1)c1cccc2ccccc12 | inactive | 
CC(C)CN(CC(C)C)c1ccc(C=C2C(=O)NC(=S)NC2=O)cc1[N+](=O)[O-] | inactive | 
CCC(=Nc1ccc(OC)cc1OC)c1c(O)n(C2CCCCC2)c(=O)[nH]c1=O | inconclusive: 11.2 µM [inhibitor, single point] | 
Clc1cccc(CN2CCCCC2c2cccnc2)c1 (stereo unspecified) | inconclusive: 25.1 µM [inhibitor, partial curve] | 
O=P1(Oc2ccccc2)CC=C[C@H](COCc2ccccc2)O1 (stereo partly specified) | inconclusive: 3.55 µM [activator, partial curve] | 
CNc1cc(Cl)c2nonc2c1[N+](=O)[O-] | active: 6.31 µM | 
O=C(c1ccc2c(=O)n(Cc3ccc4c(c3)OCO4)c(=S)[nH]c2c1)N1CCC2(CC1)OCCO2 | inactive | 
CCCCCSc1cc(OC)c(CCN(C)C)cc1OC | inconclusive: 15.8 µM [inhibitor, single point] | 
Cc1cc(/C=C2\C(=O)NC(=O)N(Cc3ccccc3)C2=O)c(C)n1-c1ccc(Cl)c(C(=O)O)c1 | inactive | 
